Article PMC4540712 (EJNMMI Research, 2015)

Assay: general procedure: Fmoc solid-phase peptide synthesis; Rink amide MBHA; HATU
Conditions: whole synthesis

Leu-Sta-His-Gly-Val-Ala-Trp-Gln-D-Phe-4-amino-1-carboxymethyl-piperidine-4-pentynoic acid
isolated yield: 71%
